From ChEMBL document CHEMBL3351846, “Synthesis and SAR studies of bis-chromenone derivatives for anti-proliferative activity against human cancer cells” (Bioorg Med Chem Lett, 2014)
Counter-ions that a name gives are not always drawn.

Tests used:
[1] = Anti-proliferative activity against human PC3 cells by XTT assay; assay type: functional, cell-based; settings: PC-3
ACHN = assay: Anti-proliferative activity against human ACHN cells by XTT assay; assay type: functional, cell-based

IC50 (ACHN): 260 nM
SMILES: COc1cccc2c1C(=O)c1c(O)c3c(c(O)c1C2=O)C[C@@](O)(C(=O)CO)C[C@@H]3O[C@H]1C[C@H](N)[C@H](O)[C@H](C)O1 [DOXORUBICIN HYDROCHLORIDE]
IC50 [1]: 500 nM
